{"sequences": {"note": "Chains of the proteins cited; added tags and fusions are not shown. Lines headed by an entry give the natural chain unless they say otherwise; changes in a name come on top. A line that says so, or that is headed by a name, gives the form on record, which may keep a tag or linker.", "GFP tagged RTN3 (human (cDNA from HEK293T)) (O95197, form named)": "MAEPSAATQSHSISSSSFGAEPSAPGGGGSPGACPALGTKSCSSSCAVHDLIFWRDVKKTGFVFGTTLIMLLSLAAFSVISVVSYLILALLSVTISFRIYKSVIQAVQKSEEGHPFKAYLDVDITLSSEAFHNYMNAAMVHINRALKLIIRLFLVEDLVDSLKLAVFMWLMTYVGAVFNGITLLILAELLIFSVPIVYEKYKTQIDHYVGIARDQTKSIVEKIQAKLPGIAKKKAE", "UniProt Q14258": "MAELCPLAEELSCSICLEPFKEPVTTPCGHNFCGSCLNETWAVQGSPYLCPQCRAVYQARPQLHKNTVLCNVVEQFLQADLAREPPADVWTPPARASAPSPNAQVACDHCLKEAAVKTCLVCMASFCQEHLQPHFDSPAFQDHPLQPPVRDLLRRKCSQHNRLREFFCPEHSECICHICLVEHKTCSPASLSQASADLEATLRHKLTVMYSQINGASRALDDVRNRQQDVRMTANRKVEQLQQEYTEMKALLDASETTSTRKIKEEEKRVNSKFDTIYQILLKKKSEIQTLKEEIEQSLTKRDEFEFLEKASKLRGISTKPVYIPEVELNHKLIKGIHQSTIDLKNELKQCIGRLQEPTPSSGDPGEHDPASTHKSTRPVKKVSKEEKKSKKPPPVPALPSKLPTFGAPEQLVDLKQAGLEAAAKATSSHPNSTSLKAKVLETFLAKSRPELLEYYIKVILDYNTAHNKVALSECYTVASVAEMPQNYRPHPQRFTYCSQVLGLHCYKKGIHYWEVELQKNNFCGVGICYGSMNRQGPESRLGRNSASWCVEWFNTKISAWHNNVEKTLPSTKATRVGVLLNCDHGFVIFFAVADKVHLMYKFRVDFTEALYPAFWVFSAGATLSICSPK"}, "source": "paper doi:10.1101/2020.12.01.407320", "target": "GFP tagged RTN3 (human (cDNA from HEK293T)) (UniProt O95197)", "assay": "co-IP", "note": "Results are given in words; binding and its absence hold for the method and conditions named. In cells and extracts the contact can be indirect. Some entries that bind do so weakly or less than the wild type."}
{"substance": "Flag-tagged TRIM25 (from UniProt Q14258 1-630)", "values": [{"measurement": "binding", "value": "binds"}]}
